Measurements reported in PMC5992339, “The Structure of an Infectious Human Polyomavirus and Its Interactions with Cellular Receptors” (Structure(London, England:1993), 2018).
Results are given in words; binding and its absence hold for the method and conditions named. Some results given as binding are weak or reduced against the parent protein; the word gives no strength.

Chains of the proteins cited; added tags and fusions are not shown.
UniProt P03088: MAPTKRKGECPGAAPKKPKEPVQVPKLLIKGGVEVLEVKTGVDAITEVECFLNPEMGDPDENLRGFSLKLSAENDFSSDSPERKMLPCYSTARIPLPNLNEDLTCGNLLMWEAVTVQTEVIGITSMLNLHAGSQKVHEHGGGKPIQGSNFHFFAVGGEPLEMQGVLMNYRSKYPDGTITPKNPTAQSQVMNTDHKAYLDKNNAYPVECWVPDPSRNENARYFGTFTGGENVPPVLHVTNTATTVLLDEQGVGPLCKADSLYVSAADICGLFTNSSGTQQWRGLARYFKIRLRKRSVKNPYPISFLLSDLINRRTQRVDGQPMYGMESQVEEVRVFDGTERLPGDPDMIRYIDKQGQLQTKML

Molecular target: BK polyomavirus major capsid protein VP1 (BK polyomavirus, Dunlop strain) (UniProt P03088)
Test: cryo-EM structure; purified native BKV virions (0.25 mg/ml) adsorbed on carbon-coated lacey grids in buffer A without Triton X-100; icosahedral reconstructions: unliganded 3.8 A, with 20 mM GT1b oligosaccharide 3.4 A, with heparin 10 mg/ml 3.6 A, with 5 mM DTT (reduced) 6.5 A; both purified

Substance: BK polyomavirus minor capsid protein VP2 (or its N-terminally truncated variant VP3) (from UniProt P03094 1-351)
- binding: binds
